PubChem BioAssay AID1259306 – Sanger Institute | 2017

- Test: 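Find kinases whose loss reduces colorectal cancer cell viability or aids targeted drugs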 (primary screen)
- Cells: human SNU-C5 colorectal cancer cells
- Reagents: siRNA pool against human genes
- Treatment: DMSO vehicle alone, or one anchor drug: BYL719 at 1 µM, cetuximab at 5 µg/ml or trametinib at 10 nM, given 24 h into the assay
- Read-out: 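Replicate-averaged viability against non-targeting pool control, given as fraction and robust z-score; separate synergy scores for BYL719, cetuximab and trametinib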
- Reading the numbers: robust z-score, knock-down alone: higher = more viable cells
- Active means: 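Called essential when the robust z-score for knock-down alone is below -3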
- Meaning of the calls: active = essential (knock-down alone); inactive = no change alone
In all, the deposit lists 794 reagents; this is an unselected part. 11 of them (1.4%) count as active. 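Calls reflect knock-down alone; synergy scores play no part, so knock-downs synergising with a drug can be called no change.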 A number with no mark means an inactive call. Not all columns of the deposit are shown. Not stated in the record: the amount of reagent, the time to read-out.

For GRK6, what does the deposit list?
robust z-score, knock-down alone: -1.15

For PTPRU, what was measured?
robust z-score, knock-down alone: -0.687

For CDK5R1, what was measured?
robust z-score, knock-down alone: -0.604

Which result is listed for ITPKB?
robust z-score, knock-down alone: 0.298

For PRKAB1, what does the deposit list?
robust z-score, knock-down alone: -1.71

How did the screen score ALK?
robust z-score, knock-down alone: -0.219

Which result is listed for PI4KA?
robust z-score, knock-down alone: 0.989

With NME2, how do the results read?
robust z-score, knock-down alone: -0.456

What did the screen give for PRKCA?
robust z-score, knock-down alone: 0.0454

For STK36, how do the results read?
robust z-score, knock-down alone: 0.989

For IKBKG, how do the results read?
robust z-score, knock-down alone: 0.952

Which result is listed for DGKB?
robust z-score, knock-down alone: -2.2

What did the screen give for PHKG1?
robust z-score, knock-down alone: -0.249

Targets listed so far whose target name begins with P or p:
PTPRU | robust z-score, knock-down alone: -0.687
PRKAB1 | robust z-score, knock-down alone: -1.71
PI4KA | robust z-score, knock-down alone: 0.989
PRKCA | robust z-score, knock-down alone: 0.0454
PHKG1 | robust z-score, knock-down alone: -0.249

Further entries follow:
How did the screen score GRK5?
robust z-score, knock-down alone: 0.989

What did the screen give for TAF1?
robust z-score, knock-down alone: -0.149

What is on record for WNK4?
robust z-score, knock-down alone: 0.989

For CNOT1, how do the results read?
robust z-score, knock-down alone: -1.73

For STK38L, what does the deposit list?
robust z-score, knock-down alone: -1.52

For CDKL4, what was measured?
robust z-score, knock-down alone: 0.678

What is on record for CDK6?
robust z-score, knock-down alone: 0.146

Which result is listed for PDGFRL?
robust z-score, knock-down alone: 0.989

How did the screen score RPS6KB2?
robust z-score, knock-down alone: 0.755

With TNK1, how do the results read?
robust z-score, knock-down alone: -0.0612

For DLG1, what does the deposit list?
robust z-score, knock-down alone: 0.989

With PIK3R3, what was measured?
robust z-score, knock-down alone: 0.989

For PIK3CG, what was measured?
robust z-score, knock-down alone: -0.594

How did the screen score CHUK?
robust z-score, knock-down alone: 0.184

How did the screen score DYRK1B?
robust z-score, knock-down alone: 0.682
